Test results published in publication doi:10.1101/2022.03.07.483178.
These are yes or no findings as the source states them, for the method shown. Binding seen in cells or lysates may run through a third protein.

By UniProt entry, the sequences of proteins in these tests, tags left out.
UniProt Q6P179: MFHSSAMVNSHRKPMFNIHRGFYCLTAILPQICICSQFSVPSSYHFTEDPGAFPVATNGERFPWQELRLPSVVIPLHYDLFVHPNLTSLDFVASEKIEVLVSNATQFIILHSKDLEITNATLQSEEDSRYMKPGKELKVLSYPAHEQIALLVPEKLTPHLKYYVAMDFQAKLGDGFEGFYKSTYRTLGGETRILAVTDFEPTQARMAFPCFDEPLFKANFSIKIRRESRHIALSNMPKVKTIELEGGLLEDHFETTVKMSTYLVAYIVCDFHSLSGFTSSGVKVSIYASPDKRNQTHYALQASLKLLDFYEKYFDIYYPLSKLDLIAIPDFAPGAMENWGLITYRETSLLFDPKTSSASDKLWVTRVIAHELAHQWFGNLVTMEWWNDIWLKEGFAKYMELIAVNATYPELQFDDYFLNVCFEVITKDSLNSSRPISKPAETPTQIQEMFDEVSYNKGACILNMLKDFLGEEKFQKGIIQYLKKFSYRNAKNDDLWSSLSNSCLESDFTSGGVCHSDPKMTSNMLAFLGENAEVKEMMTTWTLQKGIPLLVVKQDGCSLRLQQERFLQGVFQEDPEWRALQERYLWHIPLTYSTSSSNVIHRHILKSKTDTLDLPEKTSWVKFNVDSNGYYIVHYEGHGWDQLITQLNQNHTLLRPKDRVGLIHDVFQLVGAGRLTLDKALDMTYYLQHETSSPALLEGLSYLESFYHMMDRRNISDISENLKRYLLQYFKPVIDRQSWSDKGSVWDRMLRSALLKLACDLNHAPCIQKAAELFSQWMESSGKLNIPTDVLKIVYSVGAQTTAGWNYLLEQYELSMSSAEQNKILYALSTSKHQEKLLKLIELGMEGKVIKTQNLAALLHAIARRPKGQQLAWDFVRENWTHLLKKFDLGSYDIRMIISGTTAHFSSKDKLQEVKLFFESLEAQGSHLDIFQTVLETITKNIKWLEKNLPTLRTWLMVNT
UniProt Q9UIQ6: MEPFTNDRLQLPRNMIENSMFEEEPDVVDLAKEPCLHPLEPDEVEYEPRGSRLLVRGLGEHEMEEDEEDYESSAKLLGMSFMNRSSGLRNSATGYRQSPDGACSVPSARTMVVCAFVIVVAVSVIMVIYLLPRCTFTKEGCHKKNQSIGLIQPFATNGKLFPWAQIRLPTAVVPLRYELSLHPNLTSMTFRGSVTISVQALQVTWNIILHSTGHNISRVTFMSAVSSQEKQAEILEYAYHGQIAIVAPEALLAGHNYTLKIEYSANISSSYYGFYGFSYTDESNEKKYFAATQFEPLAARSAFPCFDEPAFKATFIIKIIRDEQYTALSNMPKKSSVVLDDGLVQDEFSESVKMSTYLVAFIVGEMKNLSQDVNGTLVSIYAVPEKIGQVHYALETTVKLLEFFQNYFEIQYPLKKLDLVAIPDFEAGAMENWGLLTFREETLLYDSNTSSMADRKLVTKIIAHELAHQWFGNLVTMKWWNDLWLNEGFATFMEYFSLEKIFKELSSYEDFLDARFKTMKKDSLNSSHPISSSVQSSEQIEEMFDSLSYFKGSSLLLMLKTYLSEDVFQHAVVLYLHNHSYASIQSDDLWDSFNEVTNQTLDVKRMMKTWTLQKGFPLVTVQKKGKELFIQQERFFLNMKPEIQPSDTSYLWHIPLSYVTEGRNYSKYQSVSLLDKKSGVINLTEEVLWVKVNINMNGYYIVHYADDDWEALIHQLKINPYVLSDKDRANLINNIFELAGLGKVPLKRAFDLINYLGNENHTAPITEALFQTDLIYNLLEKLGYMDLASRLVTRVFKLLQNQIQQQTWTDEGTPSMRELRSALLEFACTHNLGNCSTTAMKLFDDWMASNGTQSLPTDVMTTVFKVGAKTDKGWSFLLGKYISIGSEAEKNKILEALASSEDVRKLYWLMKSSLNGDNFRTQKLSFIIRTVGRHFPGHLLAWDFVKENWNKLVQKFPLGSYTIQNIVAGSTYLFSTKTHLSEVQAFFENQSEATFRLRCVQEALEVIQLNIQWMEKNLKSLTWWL
UniProt Q9NZ08: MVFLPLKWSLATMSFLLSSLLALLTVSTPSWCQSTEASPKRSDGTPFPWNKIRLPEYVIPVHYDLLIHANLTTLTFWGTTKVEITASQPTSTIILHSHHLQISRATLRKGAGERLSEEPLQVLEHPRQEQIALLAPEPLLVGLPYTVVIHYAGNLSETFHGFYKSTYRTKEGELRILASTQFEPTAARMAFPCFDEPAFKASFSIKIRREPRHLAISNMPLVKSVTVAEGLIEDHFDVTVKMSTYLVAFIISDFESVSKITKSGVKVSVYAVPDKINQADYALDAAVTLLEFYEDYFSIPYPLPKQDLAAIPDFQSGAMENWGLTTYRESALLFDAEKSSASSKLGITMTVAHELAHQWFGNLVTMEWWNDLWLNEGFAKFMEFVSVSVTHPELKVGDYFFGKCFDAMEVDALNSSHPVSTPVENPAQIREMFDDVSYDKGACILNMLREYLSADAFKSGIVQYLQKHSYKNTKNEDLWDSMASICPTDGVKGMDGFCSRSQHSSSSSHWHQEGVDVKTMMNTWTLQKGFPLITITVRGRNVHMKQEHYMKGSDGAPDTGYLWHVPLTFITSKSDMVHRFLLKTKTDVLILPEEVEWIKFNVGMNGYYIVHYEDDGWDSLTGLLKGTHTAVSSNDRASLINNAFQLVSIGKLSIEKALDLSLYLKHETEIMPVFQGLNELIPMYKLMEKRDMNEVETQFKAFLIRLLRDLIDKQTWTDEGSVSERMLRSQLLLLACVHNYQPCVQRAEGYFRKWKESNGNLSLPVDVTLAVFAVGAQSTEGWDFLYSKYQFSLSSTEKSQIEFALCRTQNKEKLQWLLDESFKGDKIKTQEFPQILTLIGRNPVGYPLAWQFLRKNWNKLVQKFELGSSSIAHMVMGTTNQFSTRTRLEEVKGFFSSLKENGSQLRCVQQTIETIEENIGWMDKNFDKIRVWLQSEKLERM

What was measured:
[1] = target: ERAP2 full length (canonical ERAP2 protein, 115 kDa) (human (endogenous in U937)) (UniProt Q6P179); test: co-IP
[2] = target: IRAP (human (endogenous in U937)) (UniProt Q9UIQ6); test: co-IP

binding [1]: no binding | binding [2]: no binding
Substance: ERAP1 (from UniProt Q9NZ08 1-941) (enzyme)
